Paper doi:10.1101/2023.02.23.529660
Like-named read-outs stand apart in the source and are kept apart here. Results are given in words; binding and its absence hold for the method and conditions named. Binding seen in cells or lysates may run through a third protein. Some binding calls cover weakened binding; strength is not graded here.

By UniProt entry, the sequences of proteins in these tests, tags left out. Where a name states a change or a piece, a line headed by the entry shows the natural chain unless it says otherwise. Residues count along the entry.
UniProt P02751, residues 32-2477: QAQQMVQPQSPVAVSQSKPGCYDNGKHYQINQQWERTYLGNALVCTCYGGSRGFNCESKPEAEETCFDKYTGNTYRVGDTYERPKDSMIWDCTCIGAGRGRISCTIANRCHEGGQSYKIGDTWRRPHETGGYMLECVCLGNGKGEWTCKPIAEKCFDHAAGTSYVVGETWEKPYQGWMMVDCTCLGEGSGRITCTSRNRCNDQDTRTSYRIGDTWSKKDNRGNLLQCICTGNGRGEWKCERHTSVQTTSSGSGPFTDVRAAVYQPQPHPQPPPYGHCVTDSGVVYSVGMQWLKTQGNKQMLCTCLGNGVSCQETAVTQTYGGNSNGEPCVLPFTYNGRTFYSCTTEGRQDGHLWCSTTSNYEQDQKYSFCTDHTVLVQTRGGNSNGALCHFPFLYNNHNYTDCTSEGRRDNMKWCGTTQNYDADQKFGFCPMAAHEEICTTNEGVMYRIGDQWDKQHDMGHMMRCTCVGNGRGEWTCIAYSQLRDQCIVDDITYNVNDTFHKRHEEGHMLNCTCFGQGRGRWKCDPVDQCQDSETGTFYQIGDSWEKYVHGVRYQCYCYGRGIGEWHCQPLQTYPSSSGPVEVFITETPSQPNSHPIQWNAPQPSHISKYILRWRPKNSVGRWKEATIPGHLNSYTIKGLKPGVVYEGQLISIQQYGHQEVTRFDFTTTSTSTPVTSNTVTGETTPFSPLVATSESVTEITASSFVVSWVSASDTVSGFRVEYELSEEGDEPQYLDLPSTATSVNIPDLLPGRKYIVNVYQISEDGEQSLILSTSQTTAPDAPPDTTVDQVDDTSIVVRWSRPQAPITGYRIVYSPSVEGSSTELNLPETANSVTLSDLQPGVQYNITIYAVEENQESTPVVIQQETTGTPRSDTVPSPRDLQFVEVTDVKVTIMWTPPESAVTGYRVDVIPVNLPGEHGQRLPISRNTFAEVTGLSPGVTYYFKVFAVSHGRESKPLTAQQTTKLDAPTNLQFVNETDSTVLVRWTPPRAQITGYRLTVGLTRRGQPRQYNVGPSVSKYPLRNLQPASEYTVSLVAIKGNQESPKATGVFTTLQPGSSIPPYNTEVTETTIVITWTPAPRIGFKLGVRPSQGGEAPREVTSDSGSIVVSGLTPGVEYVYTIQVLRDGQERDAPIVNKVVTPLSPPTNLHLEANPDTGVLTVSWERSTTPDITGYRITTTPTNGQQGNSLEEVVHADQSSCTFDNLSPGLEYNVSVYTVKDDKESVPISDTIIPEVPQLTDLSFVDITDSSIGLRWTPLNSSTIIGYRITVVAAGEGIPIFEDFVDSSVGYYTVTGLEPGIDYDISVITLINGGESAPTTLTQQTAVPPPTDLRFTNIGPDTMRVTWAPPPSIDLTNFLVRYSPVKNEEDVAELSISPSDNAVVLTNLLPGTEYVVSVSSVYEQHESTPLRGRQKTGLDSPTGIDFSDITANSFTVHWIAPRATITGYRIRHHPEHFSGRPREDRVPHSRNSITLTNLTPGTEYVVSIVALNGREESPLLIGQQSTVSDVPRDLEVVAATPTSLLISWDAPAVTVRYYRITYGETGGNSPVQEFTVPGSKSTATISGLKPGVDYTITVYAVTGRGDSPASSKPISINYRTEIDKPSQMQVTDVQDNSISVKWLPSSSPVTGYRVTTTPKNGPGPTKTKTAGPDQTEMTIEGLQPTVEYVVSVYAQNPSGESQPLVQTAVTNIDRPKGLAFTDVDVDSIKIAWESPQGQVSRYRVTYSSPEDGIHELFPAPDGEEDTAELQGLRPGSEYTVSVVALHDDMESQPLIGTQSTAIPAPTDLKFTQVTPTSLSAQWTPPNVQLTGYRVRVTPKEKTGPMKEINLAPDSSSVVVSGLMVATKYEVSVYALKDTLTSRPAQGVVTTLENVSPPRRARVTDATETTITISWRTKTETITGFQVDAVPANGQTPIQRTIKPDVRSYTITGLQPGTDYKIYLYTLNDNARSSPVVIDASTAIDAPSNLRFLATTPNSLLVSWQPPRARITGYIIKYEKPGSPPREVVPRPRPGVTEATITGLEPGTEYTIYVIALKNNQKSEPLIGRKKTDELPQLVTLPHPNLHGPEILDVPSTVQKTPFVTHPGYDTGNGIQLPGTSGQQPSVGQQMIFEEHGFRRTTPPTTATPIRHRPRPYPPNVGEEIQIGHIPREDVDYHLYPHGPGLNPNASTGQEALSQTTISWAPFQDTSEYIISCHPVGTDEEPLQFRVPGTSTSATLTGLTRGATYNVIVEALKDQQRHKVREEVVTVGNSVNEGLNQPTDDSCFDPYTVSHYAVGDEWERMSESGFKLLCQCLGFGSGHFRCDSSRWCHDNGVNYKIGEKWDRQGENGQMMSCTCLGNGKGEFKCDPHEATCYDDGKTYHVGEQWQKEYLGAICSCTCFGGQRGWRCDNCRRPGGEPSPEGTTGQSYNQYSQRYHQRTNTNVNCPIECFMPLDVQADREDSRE
UniProt P01106: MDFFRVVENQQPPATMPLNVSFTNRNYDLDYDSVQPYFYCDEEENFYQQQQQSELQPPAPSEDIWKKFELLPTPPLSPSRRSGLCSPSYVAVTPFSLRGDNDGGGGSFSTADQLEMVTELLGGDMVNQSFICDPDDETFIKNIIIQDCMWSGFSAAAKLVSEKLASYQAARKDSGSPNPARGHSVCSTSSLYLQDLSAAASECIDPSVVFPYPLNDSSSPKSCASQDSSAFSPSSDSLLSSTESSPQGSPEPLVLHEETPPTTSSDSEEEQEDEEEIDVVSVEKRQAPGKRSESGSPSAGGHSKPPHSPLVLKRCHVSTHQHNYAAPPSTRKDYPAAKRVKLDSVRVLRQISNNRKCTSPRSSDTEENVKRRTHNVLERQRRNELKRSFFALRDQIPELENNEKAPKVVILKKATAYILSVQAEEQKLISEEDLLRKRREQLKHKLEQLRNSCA
UniProt P10275: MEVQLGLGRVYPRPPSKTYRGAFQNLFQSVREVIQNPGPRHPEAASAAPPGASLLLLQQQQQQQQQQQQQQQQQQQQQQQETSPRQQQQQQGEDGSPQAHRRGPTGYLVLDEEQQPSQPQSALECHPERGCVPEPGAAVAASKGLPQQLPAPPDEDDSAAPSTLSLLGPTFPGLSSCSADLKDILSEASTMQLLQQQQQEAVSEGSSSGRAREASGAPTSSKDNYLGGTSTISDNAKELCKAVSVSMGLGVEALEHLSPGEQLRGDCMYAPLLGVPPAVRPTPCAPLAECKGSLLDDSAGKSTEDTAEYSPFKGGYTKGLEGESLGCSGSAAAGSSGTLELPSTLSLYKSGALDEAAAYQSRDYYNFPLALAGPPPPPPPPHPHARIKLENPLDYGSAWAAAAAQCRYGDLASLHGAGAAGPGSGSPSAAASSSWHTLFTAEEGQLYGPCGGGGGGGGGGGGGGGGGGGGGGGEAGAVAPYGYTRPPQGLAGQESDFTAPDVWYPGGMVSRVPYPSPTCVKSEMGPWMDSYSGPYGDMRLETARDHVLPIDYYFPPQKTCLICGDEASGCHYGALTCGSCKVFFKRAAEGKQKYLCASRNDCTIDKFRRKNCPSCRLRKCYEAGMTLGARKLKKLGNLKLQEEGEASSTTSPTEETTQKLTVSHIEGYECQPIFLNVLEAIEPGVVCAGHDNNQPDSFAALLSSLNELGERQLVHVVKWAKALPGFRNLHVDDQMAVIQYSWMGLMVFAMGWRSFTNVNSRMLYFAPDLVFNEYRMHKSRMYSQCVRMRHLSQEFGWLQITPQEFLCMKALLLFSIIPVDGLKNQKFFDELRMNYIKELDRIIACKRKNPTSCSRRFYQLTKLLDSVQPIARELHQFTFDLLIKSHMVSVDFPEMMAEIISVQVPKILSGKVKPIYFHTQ

What was measured:
Experiment in all cases: co-IP
[1] = biological target: fibronectin (FN1), endogenous (human (endogenous in RWPE1, LNCaP, C4-2B)) (UniProt P02751)
[2] = biological target: cMYC, endogenous (human (endogenous in RWPE1, LNCaP, C4-2B)) (UniProt P01106)
[3] = biological target: fibronectin (FN1), endogenous (human (endogenous in RWPE1, LNCaP, C4-2B)) (UniProt P02751); remark: listed apart in the source
[4] = biological target: androgen receptor (AR), endogenous, isoforms not told apart (human (endogenous in RWPE1, LNCaP, C4-2B)) (UniProt P10275)
[5] = biological target: androgen receptor (AR), endogenous, isoforms not told apart (human (endogenous in RWPE1, LNCaP, C4-2B)) (UniProt P10275); remark: listed apart in the source

Substance | binding [1] | binding [2] | binding [3] | binding [4] | binding [5]
androgen receptor isoform AR-A (N-terminally truncated), endogenous (from UniProt P10275 188-920) |  | binds | no binding |  | 
cMYC, endogenous (from UniProt P01106 1-454) | binds |  | binds |  | 

More lines, now with the values ahead:

binding [1] | binding [2] | binding [3] | binding [4] | binding [5] | Substance
binds |  |  |  |  | androgen receptor (AR), endogenous, isoforms not told apart (from UniProt P10275 1-920)
 |  | binds |  |  | androgen receptor isoform AR-B (full length), endogenous (from UniProt P10275 1-920)
 | binds |  | binds | binds weakly | fibronectin (FN1), endogenous (from UniProt P02751 32-2477)
